Results deposited as PubChem BioAssay AID1259424 (University of Nebraska Medical Center, 2018)
Test: 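Find knockdowns that reproduce the expression shifts seen after KSR1 loss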 (primary screen). Cell system: human HCT116 colon cancer cells. Knock-down reagent: siRNA pool against human genes, 50 nM. Read-out: 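Log2 levels of six mRNAs (branched-DNA multiplex), adjusted by two reference genes and the non-targeting median, then scored against the average KSR1 knockdown pattern as Pearson r and euclidean distance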. Direction: mean correlation with KSR1 profile and KSR1 correlation: higher = expression change more like KSR1 knockdown; mean distance from KSR1 profile: higher = expression change less like KSR1 knockdown.
In all, the deposit lists about 14,000 reagents; shown is an unselected part. 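Higher correlation or smaller distance means closer resemblance to KSR1 loss; control wells, including KSR1 knockdowns, recur on many plates.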 The numbers tell different reagents against one gene apart. Not stated in the record: the time to read-out.

| Gene | reagent no. | mean correlation with KSR1 profile | mean distance from KSR1 profile | KSR1 correlation, replicate 1 | KSR1 correlation, replicate 2 | KSR1 correlation, replicate 3 |
| --- | --- | --- | --- | --- | --- | --- |
| ZSWIM6 (zinc finger SWIM-type containing 6) | 1 | -0.479 | 1.99 | -0.558 | -0.294 | -0.253 |
| SLC16A7 | 1 | 0.112 | 1.06 | 0.118 | 0.252 | 0.256 |
| NOD2 (nucleotide binding oligomerization domain containing 2) | 1 | 0.312 | 1.6 | 0.214 | 0.596 | 0.105 |
| CHCHD7 (coiled-coil-helix-coiled-coil-helix domain containing 7) | 1 | 0.222 | 2.66 | 0.281 | 0.0481 | 0.0539 |
| NQO2 (N-ribosyldihydronicotinamide:quinone dehydrogenase 2) | 1 | 0.476 | 1.86 | 0.38 | 0.387 | 0.442 |
| RIOK3 (RIO kinase 3) | 1 | 0.854 | 2.08 | 0.885 | 0.779 | 0.8 |
| ARFGAP3 (ARF GTPase activating protein 3) | 1 | -0.933 | 1.43 | -0.857 | -0.0738 | -0.578 |
| NCR2 (natural cytotoxicity triggering receptor 2) | 1 | -0.461 | 2.51 | -0.186 | -0.716 | -0.562 |
| ZDHHC3 (zDHHC palmitoyltransferase 3) | 1 | -0.579 | 0.886 | -0.798 | 0.785 | -0.218 |
| ZDHHC3 (zDHHC palmitoyltransferase 3) | 2 | 0.455 | 5.02 | 0.583 | 0.394 | 0.356 |
| GSTT1 (glutathione S-transferase theta 1) | 1 | -0.459 | 2.59 | -0.404 | -0.454 | -0.543 |
| MTRF1 (mitochondrial translation release factor 1) | 1 | 0.175 | 1.29 | 0.27 | 0.632 | 0.0555 |
| NKTR (natural killer cell triggering receptor) | 1 | 0.863 | 1.71 | 0.789 | 0.918 | 0.8 |
| CDK11A (cyclin dependent kinase 11A) | 1 | 0.755 | 2.06 | 0.672 | 0.736 | 0.654 |
| DLK1 (delta like non-canonical Notch ligand 1) | 1 | 0.39 | 1.98 | 0.426 | 0.378 | 0.538 |
| PGR (progesterone receptor) | 1 | 0.105 | 1.64 | 0.11 | 0.329 | -0.126 |
| TRIM27 (tripartite motif containing 27) | 1 | 0.422 | 2.54 | 0.616 | 0.391 | 0.0709 |
| IDH2 (isocitrate dehydrogenase (NADP(+)) 2) | 1 | 0.675 | 1.01 | 0.733 | 0.523 | 0.698 |
| BRMS1 (BRMS1 transcriptional repressor and anoikis regulator) | 1 | -0.0404 | 4.61 | 0.22 | -0.108 | -0.182 |
| TRIM2 (tripartite motif containing 2) | 1 | -0.8 | 2.66 | -0.788 | -0.778 | -0.551 |
| AHCYL2 (adenosylhomocysteinase like 2) | 1 | 0.0189 | 1.97 | -0.46 | 0.389 | 0.0327 |
| SPRR2B (small proline rich protein 2B) | 1 | -0.196 | 2.35 | 0.0485 | -0.438 | -0.0209 |
| FGF8 (fibroblast growth factor 8) | 1 | 0.596 | 0.67 | 0.677 | 0.373 | 0.836 |
| RTF1 (RTF1 homolog, Paf1/RNA polymerase II complex component) | 1 | -0.646 | 2.77 | -0.464 | -0.648 | -0.713 |
| GLP1R (glucagon like peptide 1 receptor) | 1 | 0.727 | 1.06 | 0.789 | 0.713 | 0.57 |
| NOL12 (nucleolar protein 12) | 1 | 0.243 | 1.83 | 0.0306 | 0.0168 | 0.312 |
| SSX5 (SSX family member 5) | 1 | 0.00232 | 2.25 | 0.171 | -0.148 | -0.00402 |
| YTHDF2 (YTH N6-methyladenosine RNA binding protein F2) | 1 | 0.565 | 2.9 | 0.341 | 0.778 | 0.596 |
| VTA1 (vesicle trafficking 1) | 1 | -0.556 | 3.51 | -0.691 | -0.493 | -0.35 |
| ODR4 (odr-4 GPCR localization factor homolog) | 1 | -0.591 | 3.22 | -0.238 | -0.473 | -0.58 |
| CCNB2 (cyclin B2) | 1 | -0.921 | 2.55 | -0.894 | -0.868 | -0.773 |
| ZBTB44 (zinc finger and BTB domain containing 44) | 1 | -0.44 | 2.48 | -0.498 | -0.661 | -0.649 |
| NARF (nuclear prelamin A recognition factor) | 1 | 0.107 | 2.96 | -0.113 | -0.413 | -0.0369 |
| ART1 (ADP-ribosyltransferase 1) | 1 | -0.167 | 1.92 | -0.452 | 0.21 | 0.221 |
| IDS (iduronate 2-sulfatase) | 1 | 0.493 | 3.81 | 0.663 | 0.000793 | 0.522 |
| PHLDA2 (pleckstrin homology like domain family A member 2) | 1 | 0.228 | 3.66 | 0.297 | 0.0506 | 0.192 |
| CPPED1 (calcineurin like phosphoesterase domain containing 1) | 1 | -0.367 | 2.65 | -0.423 | -0.543 | -0.236 |
| TMEFF2 | 1 | -0.538 | 2.3 | -0.245 | -0.626 | -0.736 |
| CRIP2 (cysteine rich protein 2) | 1 | 0.501 | 2.48 | 0.462 | 0.48 | 0.417 |
| GTF2H2 (general transcription factor IIH subunit 2) | 1 | -0.179 | 2.59 | -0.239 | -0.128 | -0.242 |
| PCGF2 (polycomb group ring finger 2) | 1 | -0.079 | 1.69 | -0.293 | 0.0227 | -0.21 |
| DOCK3 (dedicator of cytokinesis 3) | 1 | -0.534 | 1.75 | -0.405 | -0.593 | -0.573 |
| TRPM5 | 1 | 0.234 | 1.78 | 0.259 | 0.255 | 0.107 |
| POU6F2 (POU class 6 homeobox 2) | 1 | -0.694 | 2.53 | -0.598 | -0.693 | -0.615 |
| USP37 (ubiquitin specific peptidase 37) | 1 | 0.122 | 1.11 | -0.0385 | -0.0405 | 0.671 |
| HOXD9 (homeobox D9) | 1 | -0.0623 | 1.59 | 0.179 | 0.0879 | -0.18 |
| FAM8A1 (family with sequence similarity 8 member A1) | 1 | -0.3 | 1.56 | -0.279 | -0.355 | -0.169 |
| BCL2L12 (BCL2 like 12) | 1 | 0.435 | 2.39 | 0.358 | 0.251 | 0.428 |
| FAR2 (fatty acyl-CoA reductase 2) | 1 | -0.029 | 2.75 | -0.0981 | 0.0537 | -0.0487 |
| SPTBN4 (spectrin beta, non-erythrocytic 4) | 1 | -0.262 | 4.8 | 0.0971 | -0.416 | -0.286 |
| ACTR6 (actin related protein 6) | 1 | -0.402 | 2.76 | -0.167 | -0.275 | -0.586 |
| FTO (FTO alpha-ketoglutarate dependent dioxygenase) | 1 | -0.759 | 2.41 | -0.858 | -0.318 | -0.765 |
| LDHA (lactate dehydrogenase A) | 1 | 0.481 | 3.07 | 0.461 | 0.364 | 0.36 |
| CER1 (cerberus 1, DAN family BMP antagonist) | 1 | -0.238 | 0.969 | -0.117 | 0.0986 | -0.293 |
| GHITM (growth hormone inducible transmembrane protein) | 1 | 0.298 | 2.25 | 0.184 | -0.0237 | 0.0519 |
| TEX2 (testis expressed 2) | 1 | -0.0628 | 2.86 | -0.371 | -0.221 | 0.0472 |
| ALDOA (aldolase, fructose-bisphosphate A) | 1 | -0.316 | 3.36 | 0.205 | 0.152 | -0.343 |
| ADGRG3 (adhesion G protein-coupled receptor G3) | 1 | 0.551 | 2.15 | 0.464 | 0.625 | 0.46 |
| ASH1L (ASH1 like histone lysine methyltransferase) | 1 | -0.572 | 3.16 | -0.556 | -0.527 | -0.342 |
| RIPK1 (receptor interacting serine/threonine kinase 1) | 1 | -0.242 | 2.25 | -0.0023 | -0.509 | -0.456 |
| NCOR2 (nuclear receptor corepressor 2) | 1 | 0.966 | 0.972 | 0.977 | 0.974 | 0.882 |
| CD74 (CD74 molecule) | 1 | 0.0588 | 1.49 | -0.0534 | -0.0263 | 0.353 |
| ALG13 (ALG13 UDP-N-acetylglucosaminyltransferase subunit) | 1 | 0.351 | 2.54 | 0.17 | 0.403 | 0.559 |
| ALG13 (ALG13 UDP-N-acetylglucosaminyltransferase subunit) | 2 | 0.649 | 2.08 | 0.676 | 0.691 | 0.568 |

Records listed so far whose target name begins with Z or z (4):
| Gene | reagent no. | mean correlation with KSR1 profile | mean distance from KSR1 profile | KSR1 correlation, replicate 1 | KSR1 correlation, replicate 2 | KSR1 correlation, replicate 3 |
| --- | --- | --- | --- | --- | --- | --- |
| ZSWIM6 (zinc finger SWIM-type containing 6) | 1 | -0.479 | 1.99 | -0.558 | -0.294 | -0.253 |
| ZDHHC3 (zDHHC palmitoyltransferase 3) | 1 | -0.579 | 0.886 | -0.798 | 0.785 | -0.218 |
| ZDHHC3 (zDHHC palmitoyltransferase 3) | 2 | 0.455 | 5.02 | 0.583 | 0.394 | 0.356 |
| ZBTB44 (zinc finger and BTB domain containing 44) | 1 | -0.44 | 2.48 | -0.498 | -0.661 | -0.649 |
